No constants are given. Whether binding was seen depends on the method and setting. Binding seen in cells or lysates may run through a third protein. Some binding calls cover weakened binding; strength is not graded here.
Molecular target: Cullin 4A (human (endogenous in C666-1)) (UniProt Q13619)
Test: co-IP; cell lysate (500 µg per IP) with 2.5 µg CUL4A or PRMT5 antibody and protein A + G magnetic beads, room temperature, 2 h; western blotting

Protein sequences, listed by entry. Tags and fused reporters are not part of them.
UniProt Q13619: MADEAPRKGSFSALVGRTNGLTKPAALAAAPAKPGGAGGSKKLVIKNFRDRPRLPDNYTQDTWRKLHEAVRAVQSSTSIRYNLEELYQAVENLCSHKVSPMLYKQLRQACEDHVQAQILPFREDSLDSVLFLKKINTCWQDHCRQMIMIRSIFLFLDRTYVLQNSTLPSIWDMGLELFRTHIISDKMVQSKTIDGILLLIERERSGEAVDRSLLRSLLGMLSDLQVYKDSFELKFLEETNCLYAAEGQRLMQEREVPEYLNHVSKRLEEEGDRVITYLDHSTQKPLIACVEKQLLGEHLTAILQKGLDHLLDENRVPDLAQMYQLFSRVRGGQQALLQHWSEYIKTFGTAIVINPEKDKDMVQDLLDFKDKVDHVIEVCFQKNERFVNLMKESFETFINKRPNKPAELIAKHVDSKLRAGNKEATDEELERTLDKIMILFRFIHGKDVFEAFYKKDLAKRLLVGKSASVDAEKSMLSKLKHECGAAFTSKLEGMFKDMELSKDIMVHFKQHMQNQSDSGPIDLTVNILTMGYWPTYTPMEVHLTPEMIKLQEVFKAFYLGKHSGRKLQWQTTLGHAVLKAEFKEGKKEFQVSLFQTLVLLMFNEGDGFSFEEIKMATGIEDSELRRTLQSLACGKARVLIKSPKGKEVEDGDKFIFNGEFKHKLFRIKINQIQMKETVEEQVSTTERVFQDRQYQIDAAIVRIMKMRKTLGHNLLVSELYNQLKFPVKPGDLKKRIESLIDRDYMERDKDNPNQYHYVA
UniProt O14744: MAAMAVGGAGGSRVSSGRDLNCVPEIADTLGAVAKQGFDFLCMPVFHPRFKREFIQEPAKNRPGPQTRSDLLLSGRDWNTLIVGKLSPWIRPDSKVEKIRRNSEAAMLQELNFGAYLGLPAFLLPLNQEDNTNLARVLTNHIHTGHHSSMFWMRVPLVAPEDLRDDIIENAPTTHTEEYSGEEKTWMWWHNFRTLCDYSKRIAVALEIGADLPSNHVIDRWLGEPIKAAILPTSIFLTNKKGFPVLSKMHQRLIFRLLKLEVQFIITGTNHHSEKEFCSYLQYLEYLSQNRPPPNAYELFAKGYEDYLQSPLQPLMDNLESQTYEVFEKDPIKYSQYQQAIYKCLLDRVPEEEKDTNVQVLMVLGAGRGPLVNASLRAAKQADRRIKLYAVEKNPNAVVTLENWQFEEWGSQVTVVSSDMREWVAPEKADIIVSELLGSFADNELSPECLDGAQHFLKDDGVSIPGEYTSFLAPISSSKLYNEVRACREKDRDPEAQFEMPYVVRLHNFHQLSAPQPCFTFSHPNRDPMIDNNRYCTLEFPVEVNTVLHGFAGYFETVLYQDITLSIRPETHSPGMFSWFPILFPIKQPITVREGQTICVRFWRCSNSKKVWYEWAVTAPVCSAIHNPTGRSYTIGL

binding: binds
Substance: protein arginine methyltransferase 5 (from UniProt O14744 1-637)

Reference: article PMC9161857
